These are yes or no findings as the source states them, for the method shown. In cells and extracts the contact can be indirect. Some entries that bind do so weakly or less than the wild type. Tags and fused reporters may be left off the sequences shown.

Holding throughout (assay): co-IP
The target of test [1] is T1, HA-MmSTING (STING of Mus musculus), expressed in HEK 293T (Mus musculus).
T1 sequence: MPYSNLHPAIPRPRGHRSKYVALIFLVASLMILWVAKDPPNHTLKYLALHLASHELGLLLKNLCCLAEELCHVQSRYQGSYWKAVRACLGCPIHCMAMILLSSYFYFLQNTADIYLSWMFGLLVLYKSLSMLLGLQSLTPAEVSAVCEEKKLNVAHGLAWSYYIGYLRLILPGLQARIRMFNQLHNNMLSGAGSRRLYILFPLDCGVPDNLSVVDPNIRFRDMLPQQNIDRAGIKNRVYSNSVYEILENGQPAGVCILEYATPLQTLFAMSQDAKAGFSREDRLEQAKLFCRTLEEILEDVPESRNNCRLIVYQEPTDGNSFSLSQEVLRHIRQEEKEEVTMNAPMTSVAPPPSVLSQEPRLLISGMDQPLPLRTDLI

The target of test [2] is T2, HA-MbSTING (STING of Monosiga brevicollis), expressed in HEK 293T (Monosiga brevicollis).
T2 sequence: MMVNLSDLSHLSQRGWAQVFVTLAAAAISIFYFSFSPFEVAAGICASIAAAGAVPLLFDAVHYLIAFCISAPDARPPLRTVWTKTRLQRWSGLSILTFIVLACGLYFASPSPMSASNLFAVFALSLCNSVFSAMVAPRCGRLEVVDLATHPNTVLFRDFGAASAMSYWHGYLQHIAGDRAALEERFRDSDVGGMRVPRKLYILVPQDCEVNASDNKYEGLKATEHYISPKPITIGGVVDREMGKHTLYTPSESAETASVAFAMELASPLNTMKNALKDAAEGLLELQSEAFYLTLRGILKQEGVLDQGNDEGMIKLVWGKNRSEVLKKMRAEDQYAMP

The target of test [3] is T3, HA-XtSTING (STING of Xenopus tropicalis), expressed in HEK 293T (Xenopus tropicalis).
T3 sequence: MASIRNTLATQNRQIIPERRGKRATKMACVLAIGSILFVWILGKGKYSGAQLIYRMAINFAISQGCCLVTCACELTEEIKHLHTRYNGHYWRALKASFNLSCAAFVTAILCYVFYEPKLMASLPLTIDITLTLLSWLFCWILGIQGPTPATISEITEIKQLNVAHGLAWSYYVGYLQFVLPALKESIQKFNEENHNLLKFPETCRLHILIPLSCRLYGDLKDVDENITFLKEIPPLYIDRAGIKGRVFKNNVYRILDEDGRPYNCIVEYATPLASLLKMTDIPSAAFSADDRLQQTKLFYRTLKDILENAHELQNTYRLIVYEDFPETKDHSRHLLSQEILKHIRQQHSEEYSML

Test [4] deals with HA-NvSTING (STING of Nematostella vectensis), expressed in HEK 293T (Nematostella vectensis).
Test [5] addresses T4, MbFADS-FLAG (FADS-like desaturase of Monosiga brevicollis) (Monosiga brevicollis).
T4 sequence: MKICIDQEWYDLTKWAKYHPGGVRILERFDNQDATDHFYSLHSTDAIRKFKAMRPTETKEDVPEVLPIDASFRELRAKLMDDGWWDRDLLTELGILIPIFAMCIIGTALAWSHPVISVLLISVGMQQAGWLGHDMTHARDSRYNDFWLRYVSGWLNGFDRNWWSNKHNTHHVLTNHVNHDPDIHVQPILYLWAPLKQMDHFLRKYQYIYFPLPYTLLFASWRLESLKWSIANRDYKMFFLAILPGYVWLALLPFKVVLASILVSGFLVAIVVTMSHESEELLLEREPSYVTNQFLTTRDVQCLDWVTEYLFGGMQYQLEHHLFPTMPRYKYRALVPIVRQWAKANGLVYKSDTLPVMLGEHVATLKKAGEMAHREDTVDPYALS

B1: XtFADS2-FLAG (FADS2 of Xenopus tropicalis) (protein)
chain: MGMGGQSGEGCSSGNCVKPEARYSWEEIQKHNLKTDKWLVIERKVYNITQWVKCHPGGMRVIGHYAGEDATDAFHAFHPDKNFVRKFLKPLYVGELAENEPSQDRDKNAQQVEDFRALRKTAEDMGLFKSNPAFFIVYLFHILLIEFLAWCTLHYFGTGWIPTILTVLLLTISQAQAGWLQHDFGHLSVFKKSKWNHLIHKFIIGHLKGASANWWNHRHFQHHAKPNIFRKDPDVNMVNVFVLGDTQPVEFGKKRIKYLPYNHQHLYFFLIGPPLLIPIYFTIQIMKTMITRKDWVDLAWSVSYYARFFITFVPFYGVLGSLALLNAVRFIESHWFVWVTQMNHLPMVIDHEKYKDWLETQLAATCNIEPSFFNDWFSGHLNFQIEHHLFPTMPRHNYWKIAPLVRSLCSKYNVTYEEKCLYHGFRDVFRSLKKSGQLWLDAYLHK
Regarding B1, the binding result in test [1] is “binds weakly”; in test [2], “binds”.

B2: MbFADS-FLAG (FADS-like desaturase of Monosiga brevicollis) (protein)
chain: T4 sequence
As for B2, the binding entry in test [3], in test [1], in test [2] and in test [4] was “binds” throughout.

B3: HA-MbSTING (STING of Monosiga brevicollis), expressed in HEK 293T (protein)
chain: T2 sequence
As for B3, the binding entry in test [5] is recorded as “binds”.

B4: NvFADS-FLAG (FADS-like desaturase of Nematostella vectensis) (protein)
chain: MTVALQRRTPKVYTLDEVKEHCSKGDCWVVVEDSVYDLSKWIGHHPGGELPILYMAGRECTDVFKAFHPAWVFTKKLPAFKIGKLDDTRKEKKETSLSEDFEKLRQEIIEGGGLQTNYWFYIRLASMLALLFASIIYCVVFSNNVYIQVAAGILVAVFWQQMAFIGHDAGHHAIFHDEQWDDRLGLVVGNLLTGVSIGWWKKSHNAHHVVTNSVELDPDIQHLPVLAVTDKFFNSIKSIYHDRVMHFDGLAKFFVRYQHHLYFLIMGLARFNLYAQSFLLVLSKERVKLRVMEFVTMVLFWTWYLTLCSYLPTWSTRFAFVFLAHFLAGIIHIQITLSHFSMETYNGLPLDAFKENRFLLSQMDTTMDIECDPNLDFFHGGLQFQFEHHLFPRVARQNLRSIQEKMKLLCKKHGLPYRSKSFVDANIEVIQCLKDTAEKSKCFSPKIWDSVHCIG
For B4, the binding result in test [2] is listed as “no binding”.
